Results are given in words; binding and its absence hold for the method and conditions named. Binding seen in cells or lysates may run through a third protein. Here binding means that the protein was enriched with, or labelled near, the bait; the list need not be complete. Where a sequence is shown, tags or fusion partners need not be part of it.

Protein sequences, listed by entry. Tags and fused reporters are not part of them.
UniProt Q61879: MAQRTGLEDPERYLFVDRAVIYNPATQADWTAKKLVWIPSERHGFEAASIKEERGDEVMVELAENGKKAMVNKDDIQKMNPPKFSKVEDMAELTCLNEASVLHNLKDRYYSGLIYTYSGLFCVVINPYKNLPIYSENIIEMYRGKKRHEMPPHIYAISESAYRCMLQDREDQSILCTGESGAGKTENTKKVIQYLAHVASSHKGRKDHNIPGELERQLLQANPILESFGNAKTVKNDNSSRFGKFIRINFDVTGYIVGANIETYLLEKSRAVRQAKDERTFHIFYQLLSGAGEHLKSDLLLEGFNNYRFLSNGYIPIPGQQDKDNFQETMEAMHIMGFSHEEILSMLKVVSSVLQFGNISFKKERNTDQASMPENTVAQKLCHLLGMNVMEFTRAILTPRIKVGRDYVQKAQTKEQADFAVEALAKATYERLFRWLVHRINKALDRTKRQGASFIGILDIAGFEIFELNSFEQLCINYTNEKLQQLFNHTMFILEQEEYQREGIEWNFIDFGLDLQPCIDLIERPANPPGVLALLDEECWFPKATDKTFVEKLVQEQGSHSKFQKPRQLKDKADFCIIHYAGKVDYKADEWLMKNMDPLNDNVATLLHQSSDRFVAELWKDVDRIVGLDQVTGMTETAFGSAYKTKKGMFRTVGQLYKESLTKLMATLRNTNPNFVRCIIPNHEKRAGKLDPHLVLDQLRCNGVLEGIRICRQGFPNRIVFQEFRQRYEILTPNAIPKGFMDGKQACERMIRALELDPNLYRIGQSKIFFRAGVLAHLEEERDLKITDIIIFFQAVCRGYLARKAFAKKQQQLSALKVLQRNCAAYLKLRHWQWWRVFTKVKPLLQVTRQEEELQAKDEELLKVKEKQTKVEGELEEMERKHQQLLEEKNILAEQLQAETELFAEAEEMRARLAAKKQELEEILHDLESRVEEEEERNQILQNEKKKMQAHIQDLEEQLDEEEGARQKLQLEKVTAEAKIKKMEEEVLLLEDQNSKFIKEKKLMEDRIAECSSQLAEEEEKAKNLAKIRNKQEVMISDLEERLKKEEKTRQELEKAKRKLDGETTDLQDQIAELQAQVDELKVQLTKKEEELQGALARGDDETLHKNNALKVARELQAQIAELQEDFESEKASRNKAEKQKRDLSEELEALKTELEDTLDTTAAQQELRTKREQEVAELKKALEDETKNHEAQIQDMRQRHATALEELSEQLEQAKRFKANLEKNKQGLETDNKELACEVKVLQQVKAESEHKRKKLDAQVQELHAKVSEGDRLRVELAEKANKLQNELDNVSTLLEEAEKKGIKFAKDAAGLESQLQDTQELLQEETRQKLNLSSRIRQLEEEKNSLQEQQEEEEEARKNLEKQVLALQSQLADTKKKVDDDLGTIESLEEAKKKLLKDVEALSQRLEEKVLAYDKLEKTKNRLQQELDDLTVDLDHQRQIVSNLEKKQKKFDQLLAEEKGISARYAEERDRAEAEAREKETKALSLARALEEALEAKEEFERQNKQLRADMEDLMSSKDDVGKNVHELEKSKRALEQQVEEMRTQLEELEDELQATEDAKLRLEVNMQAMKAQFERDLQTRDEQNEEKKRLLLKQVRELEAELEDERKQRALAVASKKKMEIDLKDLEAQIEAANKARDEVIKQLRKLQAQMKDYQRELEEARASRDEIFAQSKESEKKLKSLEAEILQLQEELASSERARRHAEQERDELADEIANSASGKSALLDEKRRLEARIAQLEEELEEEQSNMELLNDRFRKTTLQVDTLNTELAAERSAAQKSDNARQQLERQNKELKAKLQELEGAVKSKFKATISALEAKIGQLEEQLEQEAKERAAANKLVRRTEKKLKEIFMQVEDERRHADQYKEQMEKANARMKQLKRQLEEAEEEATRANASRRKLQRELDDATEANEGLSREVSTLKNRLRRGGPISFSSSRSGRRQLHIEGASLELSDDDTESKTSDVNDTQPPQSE

This assay addresses T1, Halo-tagged Dlc1 isoform 2 (mouse) (UniProt Q9R0Z9).
T1 sequence: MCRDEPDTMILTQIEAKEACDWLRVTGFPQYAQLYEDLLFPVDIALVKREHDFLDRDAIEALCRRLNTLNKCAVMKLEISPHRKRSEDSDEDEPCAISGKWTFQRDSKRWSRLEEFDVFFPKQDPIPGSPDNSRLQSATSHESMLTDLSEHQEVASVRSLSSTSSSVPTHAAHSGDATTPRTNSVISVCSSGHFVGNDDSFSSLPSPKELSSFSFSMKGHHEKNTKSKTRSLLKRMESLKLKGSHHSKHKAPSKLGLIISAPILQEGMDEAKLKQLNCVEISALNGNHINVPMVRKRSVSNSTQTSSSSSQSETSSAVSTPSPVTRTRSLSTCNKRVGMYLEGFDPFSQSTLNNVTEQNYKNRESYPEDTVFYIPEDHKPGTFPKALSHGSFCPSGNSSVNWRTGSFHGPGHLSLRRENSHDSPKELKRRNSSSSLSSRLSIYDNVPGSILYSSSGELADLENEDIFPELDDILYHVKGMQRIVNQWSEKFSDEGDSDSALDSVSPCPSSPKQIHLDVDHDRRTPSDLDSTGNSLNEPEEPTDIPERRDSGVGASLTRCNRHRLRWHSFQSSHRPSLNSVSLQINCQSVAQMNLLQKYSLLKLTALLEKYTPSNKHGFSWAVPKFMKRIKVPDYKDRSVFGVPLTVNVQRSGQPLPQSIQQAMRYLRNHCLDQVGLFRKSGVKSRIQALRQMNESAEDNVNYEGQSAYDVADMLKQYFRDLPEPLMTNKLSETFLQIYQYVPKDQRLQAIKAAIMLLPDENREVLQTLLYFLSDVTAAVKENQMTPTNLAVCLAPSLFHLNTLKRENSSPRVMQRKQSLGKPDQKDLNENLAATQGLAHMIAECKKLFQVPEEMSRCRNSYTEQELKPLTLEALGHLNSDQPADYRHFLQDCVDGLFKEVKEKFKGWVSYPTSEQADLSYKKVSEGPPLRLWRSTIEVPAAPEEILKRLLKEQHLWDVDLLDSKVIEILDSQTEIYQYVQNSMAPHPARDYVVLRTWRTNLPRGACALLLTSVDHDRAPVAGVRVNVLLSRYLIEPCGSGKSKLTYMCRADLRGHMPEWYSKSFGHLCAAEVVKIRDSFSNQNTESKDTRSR
Kind of assay: affinity purification with mass spectrometry; Halo-tagged Dlc1 isoforms (or halo tag only) expressed in OC-033 cells, pulled down on HaloLink resin; products resolved by SDS-PAGE, Coomassie stained, most conspicuous bands cut out, in-gel digestion and tandem MS.

Take “alpha spectrin 1 (Sptan1 also known as Spna2 and fodrin) (from UniProt P16546 1-2472)”: the binding entry is reported as “binds”.
On to “non-muscle myosin heavy chain IIB (Myh10) (from UniProt Q61879 1-1976)”, for which the binding result is “binds”.

Source of the values: PMC4890663.
